The chains behind the UniProt entries cited, without tags or fusion partners.
UniProt Q17963: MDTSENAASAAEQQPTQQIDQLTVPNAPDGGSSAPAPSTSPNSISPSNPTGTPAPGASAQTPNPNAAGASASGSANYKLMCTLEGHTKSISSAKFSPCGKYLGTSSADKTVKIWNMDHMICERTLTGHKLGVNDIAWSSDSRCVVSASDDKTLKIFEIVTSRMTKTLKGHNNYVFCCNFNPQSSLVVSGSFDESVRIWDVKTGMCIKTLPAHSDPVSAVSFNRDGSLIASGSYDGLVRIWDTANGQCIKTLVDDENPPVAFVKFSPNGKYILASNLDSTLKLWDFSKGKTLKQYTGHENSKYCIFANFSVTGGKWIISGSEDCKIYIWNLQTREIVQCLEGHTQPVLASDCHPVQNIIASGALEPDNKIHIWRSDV

According to PMC6868398:

T1: CFP-1::GFP (C. elegans) (UniProt Q9XUE7)
T1 sequence: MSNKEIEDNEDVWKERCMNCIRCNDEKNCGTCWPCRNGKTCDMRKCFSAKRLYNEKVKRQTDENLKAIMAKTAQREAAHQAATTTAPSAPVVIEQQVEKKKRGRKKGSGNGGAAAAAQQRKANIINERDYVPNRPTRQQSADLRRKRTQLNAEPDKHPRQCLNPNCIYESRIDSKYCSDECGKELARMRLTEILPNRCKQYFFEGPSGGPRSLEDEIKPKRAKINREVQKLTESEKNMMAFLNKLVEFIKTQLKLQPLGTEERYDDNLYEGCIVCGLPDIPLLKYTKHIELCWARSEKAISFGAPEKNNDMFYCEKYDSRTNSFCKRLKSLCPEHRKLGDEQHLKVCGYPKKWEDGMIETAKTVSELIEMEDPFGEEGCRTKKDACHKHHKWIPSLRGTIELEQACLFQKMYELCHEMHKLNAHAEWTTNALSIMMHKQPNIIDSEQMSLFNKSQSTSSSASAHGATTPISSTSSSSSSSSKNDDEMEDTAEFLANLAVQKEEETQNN

B1: RBBP-5 (protein, UniProt Q09309 1-454)
chain: MVEILDRTYGAQFPEELECHLDLQNASANCCKFNRWGSIVAVGCTDGRVLIYDFMTRNIARTFSAHCLPVSCLSWSRDGRKLLTSSADNSIAMFDVLAGTLLHRIRFNSMVTFAMFHPRNDNKAIVLQVNKQPTVEQFSPRIQTVLANDTPGSSDESASCVSYDRKGKYIIAGTGKGKLLIYNAETLKCVAWCKQNTVQQIRQIIVPMKSRFIITNTQDRVIRTYELEDLLHQRGQMVEAKYKVLDMVNKAAWKNVCTDSDGLYVCGASTKAHSLYIWESNTGSLIKILHGNKGEALLDVQWHPTRPIILSIAQGTVSMWTQAHVENWSAFAPEFQELEENEKYIEKENEFDMEDEDADEDMTSKSQDAEDDIIDVVNVRPEDYLASSDEEDCNIMKPARNLESGPLWYIPVPLDIENADNDQRLPDDIRNLDNLLNPAWVASAKGYELSPKSK
B2: ASH-2 (protein, UniProt G5EFZ3 1-570)
chain: MRSSKGGRGRQAAPKTAPTTVCYCDGKRELGSVEVVCSTCLKWFHGRCLKEFHELNSNGVPFMICYTFTCKQCRPTAEDWKAKKADLVQMCVTVLATLSAERLKADGKLSAEHVPEDFTYLSLKDEIVPYMNENWYMLTAIKQKKEWHQNLAPTLLKEKNIFVQHNDDDDLFALAEKNLSLLGPLHEAVKLIGKRPIERENREPRHIELPPIEGPKTRGASKRRHAEAPVTGKKQKLAADYSSTAAPNGVQIDIPFSKDNYRYYLTEVDPNVPEDPAWNQNQSSAYVIPSFHYRELLNPTVNVSSNDRAFQLSINGNSITGFEGYSMARASHGVSKGTWYFEVNFDDQPDDSHIRIGWSQSYASLQACVGYNKFSYGWRSKHGTKFHEAKGKKYHFGGFKQGDVLGCLIHLPVDKKLQIPANLPSEKYLPVSHKGFNLISFKANYFFEVQEESADIAKTLVEMPGSYIEFFHNGKSCGKAYENIYAGAYYPSISIFKSATATMNLGPKFRNLPRGATGIHARADEQQHEQTLSDMLYLVSKEVNLDHPPRVKREDDDDVKDIKKEIKQEI
B3: HCF-1 (protein, UniProt G5EC23 1-782)
chain: MDEDVGLEATNYSRGDESRSEEQEKNVVRWRIVQQSTGPNPKPRHGHRAVVLKELIVIFGGGNEGMIDELHAYNTQKREWTAPQCCGDVPTPAAAFGAISLGNKIYRFGGMTEYGKYTNDLYELQSTRWEWRRLNPRVHSNGHLPCPRIGHSFVVSQKSQKAYVFGGLSNDLNDPKRNVPHYLDDLYVINLSGPQHLIWEKLNATGPGPISRESHTAVIYEKDSISRMVVYGGMNGVRLGDLWYLNLNTLHWTEIKFDDPRTGIPPMPRSLHSSVLIGDKMFVYGGWVPLLEHASTEQQTEKEWKCTSSLGCWNITEDRWVPLHLYCSDEDTIPRGRAGHCAAAVGDRMYIWSGRDGYRKAWSNQVCCRDMWLLDTILPEQPGKVQLGRAGFNSLEISWPIVQGASGYFLQIGFGDAKEQSVSPIKRATTSPRKQPSIVPPSQKETEQSPKKPQGTAPSIISTQGTTYTAPADPKPATDEGGLPQDLFEDTEKNETASPKRSNDAQSADSSTCEQKKTDESGLEEDSEKDQKPSDAGETDEMKEENGDDDLPWFDVGIIDKATINVTHYFNDRQQSLEKQLNDLIDHNAFKCVNDSVFTTEDKIPLINGQSYRFRVSAINGLGKGAWSETASCKTCVPGYPSAPSSIRITKSHEGAQLTWEPPSNTNISGKIIEYSVYLAVKNQSANSADSQLAFMRVYCGPQADCQVLQSNLGTAFVDQTNKPAIIFRIAARNEKGYGPATQVRWLQDQQKIPVRTNYPNNSGFIYQQHGGQQKRARFDHQ
B4: OGT-1 (protein, UniProt O18158 1-1151)
chain: MEKPNYFQSYNKVIGATGEQLAPGAVPPHPVLAPSIAPGGVAGVSAANMANIMQTPGFANLVQQAIRTQLENQAAQQLAVNQQFQLNGATAVQQQLLLTPQQSLAQPIALAPQPTVVLNGVSETLKKVTELAHRQFQSGNYVEAEKYCNLVFQSDPNNLPTLLLLSAINFQTKNLEKSMQYSMLAIKVNNQCAEAYSNLGNYYKEKGQLQDALENYKLAVKLKPEFIDAYINLAAALVSGGDLEQAVTAYFNALQINPDLYCVRSDLGNLLKAMGRLEEAKVCYLKAIETQPQFAVAWSNLGCVFNSQGEIWLAIHHFEKAVTLDPNFLDAYINLGNVLKEARIFDRAVSAYLRALNLSGNHAVVHGNLACVYYEQGLIDLAIDTYKKAIDLQPHFPDAYCNLANALKEKGSVVEAEQMYMKALELCPTHADSQNNLANIKREQGKIEDATRLYLKALEIYPEFAAAHSNLASILQQQGKLNDAILHYKEAIRIAPTFADAYSNMGNTLKEMGDSSAAIACYNRAIQINPAFADAHSNLASIHKDAGNMAEAIQSYSTALKLKPDFPDAYCNLAHCHQIICDWNDYDKRVRKLVQIVEDQLCKKRLPSVHPHHSMLYPLSHAARIAIAAKHASLCFDKVHVQMLGKTPLIHADRFSVQNGQRLRIGYVSSDFGNHPTSHLMQSIPGMHDRSRVEVFCYALSVNDGTNFRSKLMNESEHFVDLSQIPCNGKAAEKIAQDGIHILINMNGYTKGARNEIFALRPAPIQVMWLGYPSTSGATFMDYIITDAVTSPLRLANAFTEKLAYMPHTFFIGDHAQMLRHLTDKVVVKDKETTERDSCLIMNTANMDPILAKSEIKEQVLDTEVVSGPNKELVRAEMVLPVLEVPTEPIKQMIMTGQMTMNVMEDMNVQNGLGQSQMHHKAATGEEIPNSVLLTSRAQYQLPDDAIVFCNFNQLYKIDPSTLDMWIKILENVPKSILWLLRFPYQGEEHIRKYCVERGLDPSRIVFSNVAAKEEHVRRGQLADVCLDTPLCNGHTTGMDILWTGTPMVTMPLESLASRVATSQLYALGVPELVAKTRQEYVSIAVRLGTDADHLANMRAKVWMARTSSTLFDVKQYCHDMEDLLGQMWKRYESGMPIDHITNNTETPHGL
B5: SUMV-1 (protein, UniProt P46582 1-1024)
chain: MKQTTRPPAQYIVAPGTRFRLVANEYDKNKYGQCNYASYRTLVRCKQIRSKEELAKHGGRCEEHVEFSKTLENNHKKEVMRCHAENDSKMQRRRFDPWIASNEYISDDDDYLQAAQTVPQRLPDVANDDILDNNSLRYAEYYTDKDILNIKMDLVQKDIDDLIEFKELVTSQAQKEHELLGNDEEEDYPTDMAQRRIFKASTKYSRNDYLTLTTIDPVFHQCCVGPDMDDSLVIVHTMHSILDKIDNFEPIDSEKQCNKPALHLSKFCFDHIILDRSQKMFDVCNACGLTAIGGVDPKCSFHIKSSAIAETTSCPCNRCVQPGEHASPKDEKNSITCYLNSSDDDEPTLGNLSRIESMVSPMQQFSNQSNTLTAPLPRRYQGPPAQVLRPPQMGPPPGINQVPYQPKANRTPPMTSQQLHEQQKLKMQEEEMMSQTCASDFRVRPIDASQFGGGKKKQRLPPRRSPSFGTSPNSYQFHQQSQKKMPSIISTAYNSSPGKMNFQGWKNQSTSSATRPLPQPRFPVHAARSQQPKMIPLEQTQDSIEDDIGPSPMFQGPEPSRRGVPYYKNAYRRTELPSRHAQHSPLTPSTSTSSSQLLAPPKSPQPGTSSQTFRSQASRLPIAPHRAIAAGLNPADVGTRPAYRSQMAGQRPGMTPSAQQGSPQLISPPRQGSMMPVAMNQSPQAVRRQTPVPPYRLMGPQRVTTSYTVVRSGSSSSVAGPSRSSVASGSQHTALDTVQHDPRLANINVRTFLSIGNRDLSTLTQDEIDLLMAGNSPEKGGRKAGAPGAKESSKAAGGAQKGTSAASTSVPEPTKSSESSVDPQSDVSFSNPSPAPEVIEKVAPAAMTITSNKRKIDETLASESTSSEATLIHDTTSSSSAETVSGEPPAKKSSDVSAPVPSPEKEKEKIDRPKTPKSSTKRTTPTPSGRTPRAAAIAANQAISHSKPNVPSASTSSSAASTDQENPLDLLAELSVAAAAEEQQQAIGSTSKNGGSTKKTQRKSPSRSSIGKKRENSEEYEEEL
B6: SUMV-2 (protein, UniProt Q22992 1-1145)
chain: MKPGRKSLPKKNRASNITEKMPTTSTEAQSSSSKNQDRCRSFSQELGVDDEPEEQQAPVATPKQTKKAQKTAKTTEEVKSPRKSARKSELKKPEPEEKAKEPRKSASKRKSSSLMNKDEPSTSTEAPSADVPGTSEASDEASEIQEAPENPNSALAIKKRLMGGGESSKSAPTKNPPKARKSNVKKPEKEAEALAPPEPPAEPQEAAETPAPEPLVPEKKPKIEDAPTTSSPKKSTPTSAPPTRASARVSKPNRLYADGSFNTEILGRTRITEQNPVKEAQAKESTPELADLPLPAGRRKSTAAPRAPPAPKPIPVINGVLRGYIPSVKVPLAEYEVDGEIINLNEGVNETMDTILAKVCEDGVEKHEDIDPKVVKAKKLAKIDYTKRLKLQVKKLDIQMRIKIPSTPEELGKRKRQAPKTDDFYWSAQSRTKLKGSSKEREETPAFDEESPIGGDEKRQQKARESISHLFDAEMDASIKEAKKYSVSFDKYIKPKITGALKHAKIKLMSRKRQSAEPDDFYYHELLVDQVSPSNSNVENVDVDVDIEETDDKVDPTEFEISEEGVIGIRDEAVDMAEQIALVIPRPTKHDGSPMSMDEIQMRAMEHVESRTKCLDGSLEIVLNQLGHEMAPPTRGVEEQGCQWHTVTSANAQALKNLYTIANNCTEDAITWTHQFMIENLEVHMLASYLSILKYAKRLNSSRFGYVISSTDQLDPEWTQVTSLLKSFVYKRHTEPGTEVLNNTIPYHRMTDTVFLLVPPTLTFGDHQRAPPRHHARIFRWLQSIGHQDSEFISFDEDIDATCSVAEYLSDVIVERICDKVRQKNKYRPNCNVVLVGYGASTYLIHRAANLVEGISAIISIGFPVMTSLGRRGTADDEILLTYCPTLFIVGAEGRRFNNEAITELRTSMISPSGLVVVGHSNDMILVPTSMLLRLGISQTVVFRMVLEKILDFLNLEPVRQQEFADLVPIELNNVFDLDSALLKSDKALSGLAFASSTHSASSSAAPSPVGASGRRATVTGAGSEDIAKRRKESIILSQQIAAPSISGPPPPAPSPRTEDRFLAFQNLVASTITTGDDMPRRASMGASPRVIERGDFRDHRPPPPPPLPILQNPVATPMSQQPPLPSPAPPPPRGPVDPASISLI

What follows are molecules tested against HA::WDR-5.1 (C. elegans) (UniProt Q17963) (assay: affinity purification with mass spectrometry; HA::WDR-5.1 precipitated with anti-HA affinity matrix from about 60 mg embryo extract (strain PFR506); IP buffer with 300 mM KCl, benzonase, HA peptide elution; nanoLC-MS/MS; wild-type (N2) embryos as negative control).

**Q.** With B1 as the molecule, how does the binding read?
**A.** binds

**Q.** Which binding does the source give for B2 here?
**A.** binds

**Q.** For B3, which binding is on record?
**A.** binds

**Q.** With B4 as the molecule, how does the binding read?
**A.** binds

**Q.** How did the binding turn out when B5 was run?
**A.** binds

**Q.** How did the binding turn out when B6 was run?
**A.** binds

Each molecule was assayed against T1, CFP-1::GFP (C. elegans) (assay: affinity purification with mass spectrometry; CFP-1::GFP precipitated with GFP-TRAP MA beads from about 70 mg late stage embryo extract (strain PFR572); IP buffer with 300 mM KCl, benzonase; nanoLC-MS/MS; wild-type (N2) embryos as negative control).

**Q.** Which binding does the source give for “PIS-1 (C. elegans (endogenous in embryos))” here?
**A.** no binding

**Q.** How did the binding turn out when “SUDS-3 (C. elegans (endogenous in embryos))” was run?
**A.** no binding

**Q.** Which binding does the source give for “SET-16 (C. elegans (endogenous in embryos))” here?
**A.** no binding

**Q.** For “UTX-1 (C. elegans (endogenous in embryos))”, which binding is on record?
**A.** no binding

**Q.** With “SWD-2.1 (C. elegans (endogenous in embryos))” as the molecule, how does the binding read?
**A.** binds

**Q.** B1 was tested. Which binding did it give?
**A.** binds

**Q.** For B2, which binding is on record?
**A.** binds

**Q.** With B3 as the molecule, how does the binding read?
**A.** binds

No constants are given. Whether binding was seen depends on the method and setting. In cells and extracts the contact can be indirect. A yes stands for co-enrichment or nearness to the bait. Other partners may have been found. For some assays here: No binding means not detected with the bait. For some assays here: Sequences can lack the tags named with a protein.
